{
  "sequences": {"note": "Amino acid sequences for entries named in this document (tags omitted). Residues count along the entry.", "UniProt P21575, residues 746-864": "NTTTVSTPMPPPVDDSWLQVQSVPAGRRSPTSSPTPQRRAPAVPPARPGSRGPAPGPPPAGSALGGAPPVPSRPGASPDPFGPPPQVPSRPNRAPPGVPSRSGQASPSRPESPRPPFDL", "UniProt O35180": "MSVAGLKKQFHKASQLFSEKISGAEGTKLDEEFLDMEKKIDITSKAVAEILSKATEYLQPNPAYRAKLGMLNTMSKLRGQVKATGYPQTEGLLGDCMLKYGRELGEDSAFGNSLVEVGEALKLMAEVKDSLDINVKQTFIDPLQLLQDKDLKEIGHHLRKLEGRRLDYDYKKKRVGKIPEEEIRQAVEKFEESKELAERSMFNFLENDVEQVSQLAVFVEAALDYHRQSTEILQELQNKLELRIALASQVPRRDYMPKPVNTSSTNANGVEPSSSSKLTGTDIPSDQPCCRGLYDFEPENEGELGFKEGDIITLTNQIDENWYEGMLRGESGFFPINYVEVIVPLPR"},
  "source": "paper PMC11329700",
  "molecular_target": "GST-Dyn1xA-PRR (dynamin 1xA proline-rich region, amino acids 746-864) (rat) (UniProt P21575)",
  "assay": "affinity purification with mass spectrometry; 40 kDa band of the GST-Dyn1-PRR pull-down from rat brain synaptosomal lysate excised, digested with Lys-C/trypsin, LC-MS/MS and targeted SRM for Endophilin A1, A2, A3; only the target purified",
  "note": "No constants are given. Whether binding was seen depends on the method and setting. Binding seen in cells or lysates may run through a third protein. These calls come from enrichment with a bait or labelling near it, and not all partners need be listed.",
  "data": [
    {"substance": "Endophilin A3 (from UniProt O35180 1-347)", "values": [
      {"measurement": "binding", "value": "binds"}
    ]}
  ]
}
